Source: PubChem BioAssay AID504764 (Drosophila RNAi Screening Center, 2011)

Purpose: 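Genome-wide screen for regulators of Notch-driven gene expression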 (primary screen)
System: Drosophila Kc167 cells
Reagents: long dsRNA against Drosophila genes
Duration: about 5 days (4 days dsRNA, then 24 h after transfection)
Challenge: transfection of constitutively active membrane-tethered Notch lacking the extracellular domain, read 24 h later
Detection: 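Light from a Notch-responsive E(spl)m3 luciferase reporter under active Notch, with control-promoter and no-Notch reporter wells to normalise; raw counts from paired wells a and b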
Direction: induced reporter light, run 1, well a and induced reporter light, run 1, well b: higher = more light from the Notch target reporter with active Notch; control promoter light, run 1, well a and control promoter light, run 1, well b: higher = more light from the viral control promoter (cell number, transfection, viability); uninduced reporter light, run 1, well a: higher = more light from the Notch target reporter without active Notch
Rule for the call: 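Wells with low control signal or poorly matching duplicates excluded; duplicates averaged; per source plate, z beyond ±2 for induced/control log2 ratio or beyond ±1.8 for induced/uninduced marks a hit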
Calls: active = modifier hit (raised or lowered Notch signal); inactive = not a hit
The screen tested about 22,000 reagents; this is a random part of those that have a named target and a result. In the full data, 403 (1.9%) are marked active. 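Unnormalised raw counts per well; ratio z-scores behind the hit calls and whether each hit raises or lowers signal are not deposited.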 Reagents against one gene are numbered here. A plus sign joins genes that one reagent is predicted to hit. Not given: the amount of reagent.

After knock-down of CG1316 the results were induced reporter light, run 1, well a = 67145; induced reporter light, run 1, well b = 1.06e5; control promoter light, run 1, well a = 1.07e5; control promoter light, run 1, well b = 1.04e5; uninduced reporter light, run 1, well a = 5038; inactive.
Knock-down of CG10953 gave: induced reporter light, run 1, well a = 1.25e5; induced reporter light, run 1, well b = 1.04e5; control promoter light, run 1, well a = 1.85e5; control promoter light, run 1, well b = 1.79e5; uninduced reporter light, run 1, well a = 10715; inactive.
For Nazo the deposit lists induced reporter light, run 1, well a = 94295; induced reporter light, run 1, well b = 98275; control promoter light, run 1, well a = 1.16e5; control promoter light, run 1, well b = 79970; uninduced reporter light, run 1, well a = 7570; inactive.
Depletion of onecut came out at: induced reporter light, run 1, well a = 1.07e5; induced reporter light, run 1, well b = 1.26e5; control promoter light, run 1, well a = 2.20e5; control promoter light, run 1, well b = 2.30e5; uninduced reporter light, run 1, well a = 8775; inactive.
After knock-down of Frq2 (Frequenin 2), the screen gave induced reporter light, run 1, well a = 50380; induced reporter light, run 1, well b = 55610; control promoter light, run 1, well a = 79115; control promoter light, run 1, well b = 58715; uninduced reporter light, run 1, well a = 9500; inactive.
Silencing of CG9154 resulted in: induced reporter light, run 1, well a = 1.46e5; induced reporter light, run 1, well b = 1.52e5; control promoter light, run 1, well a = 1.46e5; control promoter light, run 1, well b = 1.65e5; uninduced reporter light, run 1, well a = 15542; inactive.
With knock-down of Ilp1 (Insulin-like peptide 1), the record shows induced reporter light, run 1, well a = 1.80e5; induced reporter light, run 1, well b = 1.55e5; control promoter light, run 1, well a = 2.14e5; control promoter light, run 1, well b = 1.56e5; uninduced reporter light, run 1, well a = 7405; inactive.
For Ac78C (Adenylyl cyclase 78C) #1 the deposit lists induced reporter light, run 1, well a = 2.15e5; induced reporter light, run 1, well b = 2.39e5; control promoter light, run 1, well a = 2.68e5; control promoter light, run 1, well b = 2.78e5; uninduced reporter light, run 1, well a = 19565; inactive.
Ac78C (Adenylyl cyclase 78C) #2 gave induced reporter light, run 1, well a = 1.54e5; induced reporter light, run 1, well b = 1.24e5; control promoter light, run 1, well a = 1.14e5; control promoter light, run 1, well b = 97315; uninduced reporter light, run 1, well a = 13640; inactive.
With knock-down of Ac78C (Adenylyl cyclase 78C) #3, the screen gave induced reporter light, run 1, well a = 5270; induced reporter light, run 1, well b = 5515; control promoter light, run 1, well a = 6240; control promoter light, run 1, well b = 4405; uninduced reporter light, run 1, well a = 460; inactive.

2 successive reagents already listed:
CG1316 → induced reporter light, run 1, well a: 67145; induced reporter light, run 1, well b: 1.06e5; control promoter light, run 1, well a: 1.07e5; control promoter light, run 1, well b: 1.04e5; uninduced reporter light, run 1, well a: 5038; Outcome: inactive
CG10953 → induced reporter light, run 1, well a: 1.25e5; induced reporter light, run 1, well b: 1.04e5; control promoter light, run 1, well a: 1.85e5; control promoter light, run 1, well b: 1.79e5; uninduced reporter light, run 1, well a: 10715; Outcome: inactive

The results go on.
Silencing of Gr47a (Gustatory receptor 47a) resulted in: induced reporter light, run 1, well a = 1.89e5; induced reporter light, run 1, well b = 1.83e5; control promoter light, run 1, well a = 2.79e5; control promoter light, run 1, well b = 2.36e5; uninduced reporter light, run 1, well a = 17820; inactive.
Silencing of CG10332 (retired record) + IM18 gave: induced reporter light, run 1, well a = 1.61e5; induced reporter light, run 1, well b = 1.60e5; control promoter light, run 1, well a = 1.80e5; control promoter light, run 1, well b = 1.74e5; uninduced reporter light, run 1, well a = 12210; inactive.
Knock-down of CheB38c (Chemosensory protein B 38c) resulted in: induced reporter light, run 1, well a = 48375; induced reporter light, run 1, well b = 38595; control promoter light, run 1, well a = 52440; control promoter light, run 1, well b = 39825; uninduced reporter light, run 1, well a = 2545; inactive.
SmydA-7 (SET and MYND domain containing, arthropod-specific, member 7) scored induced reporter light, run 1, well a = 92505; induced reporter light, run 1, well b = 1.10e5; control promoter light, run 1, well a = 1.69e5; control promoter light, run 1, well b = 1.98e5; uninduced reporter light, run 1, well a = 8515; inactive.
asun (asunder) showed induced reporter light, run 1, well a = 1.88e5; induced reporter light, run 1, well b = 1.94e5; control promoter light, run 1, well a = 2.51e5; control promoter light, run 1, well b = 3.07e5; uninduced reporter light, run 1, well a = 15060; inactive.
Depletion of Crz (Corazonin) came out at: induced reporter light, run 1, well a = 2.37e5; induced reporter light, run 1, well b = 2.34e5; control promoter light, run 1, well a = 1.89e5; control promoter light, run 1, well b = 2.01e5; uninduced reporter light, run 1, well a = 14850; inactive.
CG42540 #1 gave induced reporter light, run 1, well a = 16595; induced reporter light, run 1, well b = 16130; control promoter light, run 1, well a = 10875; control promoter light, run 1, well b = 6100; uninduced reporter light, run 1, well a = 8325; inactive.
CG42540 #2 scored induced reporter light, run 1, well a = 2.20e5; induced reporter light, run 1, well b = 2.52e5; control promoter light, run 1, well a = 2.10e5; control promoter light, run 1, well b = 2.30e5; uninduced reporter light, run 1, well a = 11790; inactive.
Against CG42540 #3, the values are induced reporter light, run 1, well a = 7770; induced reporter light, run 1, well b = 8580; control promoter light, run 1, well a = 9780; control promoter light, run 1, well b = 11155; uninduced reporter light, run 1, well a = 4420; inactive.
